Measured values taken from paper PMC5834205.
Results are given in words; binding and its absence hold for the method and conditions named. Some binding calls cover weakened binding; strength is not graded here.

Amino acid sequences for entries named in this document (tags omitted).
UniProt Q8LAZ7: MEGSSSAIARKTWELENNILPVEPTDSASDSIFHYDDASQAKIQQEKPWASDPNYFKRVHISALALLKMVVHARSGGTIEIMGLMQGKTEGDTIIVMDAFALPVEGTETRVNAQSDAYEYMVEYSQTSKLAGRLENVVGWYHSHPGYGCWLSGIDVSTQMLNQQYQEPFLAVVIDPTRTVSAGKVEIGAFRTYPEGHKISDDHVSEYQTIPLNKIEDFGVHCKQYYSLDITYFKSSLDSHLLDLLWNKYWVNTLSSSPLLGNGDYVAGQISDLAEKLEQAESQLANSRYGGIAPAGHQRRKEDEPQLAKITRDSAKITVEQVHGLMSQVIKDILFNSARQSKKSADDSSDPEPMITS

Molecular target: T1, ABA …5 (ABI5) (Arabidopsis thaliana) (UniProt Q9SJN0)
T1 sequence: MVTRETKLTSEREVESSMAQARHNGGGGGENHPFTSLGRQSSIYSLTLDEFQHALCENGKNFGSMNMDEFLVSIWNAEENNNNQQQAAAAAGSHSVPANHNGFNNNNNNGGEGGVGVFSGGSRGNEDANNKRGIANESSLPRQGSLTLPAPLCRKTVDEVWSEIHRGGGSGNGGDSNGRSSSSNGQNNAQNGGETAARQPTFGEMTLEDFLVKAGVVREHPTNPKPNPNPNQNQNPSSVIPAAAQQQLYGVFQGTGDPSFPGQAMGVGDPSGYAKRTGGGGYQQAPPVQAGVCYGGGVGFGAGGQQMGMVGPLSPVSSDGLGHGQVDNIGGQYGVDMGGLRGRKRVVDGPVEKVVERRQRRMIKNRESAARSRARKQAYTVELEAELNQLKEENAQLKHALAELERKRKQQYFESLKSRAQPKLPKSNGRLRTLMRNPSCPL
Assay: two-hybrid; Matchmaker LexA system; CSN5A or CSN5B in pB42AD (AD), ABI5 in pLexA (BD); yeast EGY48 with p8op-LacZ; SD/-His/-Trp/-Ura plates with X-Gal, blue colour

binding: binds
Substance: CSN5A (from UniProt Q8LAZ7 1-357)
